The source of these data is the supplement of paper PMC4604168 (melanoma cell lines).

Each structure is given as a SMILES string. Some of the results follow. Repeats are few or missing, and single values can be far off.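 The apoptosis fraction was the count of cleaved-PARP antibody-stained nuclei relative to all DNA-stained nuclei, imaged in 1,536-well plates. Screening doses were set so most cells survived, and baseline and induced cleaved-PARP levels vary greatly across cell lines.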

One assay relates to WM3619. Briefly: cleaved PARP positive nuclei fraction relative to DMSO control; melanoma cells; higher = more apoptosis. To be noted: library dose: low library concentration; 72 h.
Take `O=C(/C=C/c1cccnc1)NCCCCC1CCN(C(=O)c2ccccc2)CC1` + COCC[n+]1c2c(n(Cc3cnccn3)c1C)C(=O)c1ccccc1C2=O [YM155] (first compound 0.01 µM, partner dose 0.0004 µM): the “cleaved PARP positive nuclei fraction” value is 110%.

For the compound `COc1cc([C@@H]2c3cc4c(cc3[C@@H](O[C@@H]3O[C@@H]5CO[C@@H](C)O[C@H]5[C@H](O)[C@H]3O)[C@H]3COC(=O)[C@H]23)OCO4)cc(OC)c1O` [etoposide] + O=c1[nH]nc(Sc2ncc([N+](=O)[O-])s2)n1-c1ccc2c(c1)OCCO2 [BI78D3] (first compound 0.02 µM, partner dose 0.2 µM), the “cleaved PARP positive nuclei fraction” value was 106%.

Regarding `Cc1cc(Nc2cc(N3CCN(C)CC3)nc(Sc3ccc(NC(=O)C4CC4)cc3)n2)n[nH]1` [Tozasertib] + C[C@@H](Oc1cc(-c2cnn(C3CCNCC3)c2)cnc1N)c1c(Cl)ccc(F)c1Cl [Crizotinib] (first compound 0.006 µM, partner dose 0.2 µM), the “cleaved PARP positive nuclei fraction” value was determined as 96.7%.

For the compound `O=C(Nc1cc(C(F)(F)F)cc(C(F)(F)F)c1)c1cc(Cl)ccc1O` + COCC[n+]1c2c(n(Cc3cnccn3)c1C)C(=O)c1ccccc1C2=O [YM155] (first compound 0.016 µM, partner dose 0.0004 µM), the “cleaved PARP positive nuclei fraction” value turned out to be 95.7%.

`O=c1[nH]nc(Sc2ncc([N+](=O)[O-])s2)n1-c1ccc2c(c1)OCCO2` + CCCCCCCCc1ccc(CCC(N)(CO)CO)cc1 [fingolimod] (first compound 0.2 µM, partner dose 2 µM): the “cleaved PARP positive nuclei fraction” value stood at 94.3%.

The test system of the next assay is WM451Lu. Described as above. The settings on record: library dose: low library concentration; 72 h.
As for `Cc1cn(-c2cc(NC(=O)c3ccc(C)c(Nc4nccc(-c5cccnc5)n4)c3)cc(C(F)(F)F)c2)cn1` [nilotinib] + NC(=O)c1ccc(N(C(N)=O)c2c(F)cccc2F)nc1-c1ccc(F)cc1F [VX702] (first compound 0.2 µM, partner dose 0.4 µM), the “cleaved PARP positive nuclei fraction” value amounted to 65.1%.

For `CC[C@]1(O)C[C@H]2CN(CCc3c([nH]c4ccccc34)[C@@](C(=O)OC)(c3cc4c(cc3OC)N(C=O)[C@H]3[C@@](O)(C(=O)OC)[C@H](OC(C)=O)[C@]5(CC)C=CCN6CC[C@]43[C@@H]65)C2)C1` [vincristine] + C[C@@H](N)c1ccc(C(=O)Nc2ccnc3[nH]ccc23)cc1 [RKI983] (first compound 0.0001 µM, partner dose 0.4 µM), the “cleaved PARP positive nuclei fraction” value worked out at 282%.

Turning to `Cc1cn(-c2cc(NC(=O)c3ccc(C)c(Nc4nccc(-c5cccnc5)n4)c3)cc(C(F)(F)F)c2)cn1` [nilotinib] + CC(C)C[C@H](NC(=O)[C@H](Cc1ccccc1)NC(=O)c1cnccn1)B(O)O [Bortezomib] (first compound 0.2 µM, partner dose 0.001 µM), the “cleaved PARP positive nuclei fraction” value worked out at 357%.

Regarding `O=C(Nc1cc(C(F)(F)F)cc(C(F)(F)F)c1)c1cc(Cl)ccc1O` + CC(=O)c1c(C)c2cnc(Nc3ccc(N4CCNCC4)cn3)nc2n(C2CCCC2)c1=O [palbociclib] (first compound 0.016 µM, partner dose 0.04 µM), the “cleaved PARP positive nuclei fraction” value was determined as 69.1%.

Consider `O=C(Nc1cc(C(F)(F)F)cc(C(F)(F)F)c1)c1cc(Cl)ccc1O` + OCc1c[nH]c2ccccc12 [Indole-3-carbinol] (first compound 0.016 µM, partner dose 0.8 µM), for which the “cleaved PARP positive nuclei fraction” value worked out at 53.2%.

For the compound `COc1cc([C@@H]2c3cc4c(cc3[C@@H](O[C@@H]3O[C@@H]5CO[C@@H](C)O[C@H]5[C@H](O)[C@H]3O)[C@H]3COC(=O)[C@H]23)OCO4)cc(OC)c1O` [etoposide] + CS(=O)(=O)CCNCc1ccc(-c2ccc3ncnc(Nc4ccc(OCc5cccc(F)c5)c(Cl)c4)c3c2)o1 [lapatinib] (first compound 0.02 µM, partner dose 0.8 µM), the “cleaved PARP positive nuclei fraction” value came to 44.6%.

For `CCCCCCCCCCCCCCCCCCOP(=O)([O-])OC1CC[N+](C)(C)CC1` [Perifosine] + NC1(c2ccc(-c3nc4ccn5c(=O)[nH]nc5c4cc3-c3ccccc3)cc2)CCC1 [MK2206] (first compound 0.4 µM, partner dose 0.4 µM), the “cleaved PARP positive nuclei fraction” value stood at 50.8%.

Consider `N#CC[C@H](C1CCCC1)n1cc(-c2ncnc3[nH]ccc23)cn1` [ruxolitinib] + COc1ccc(Cl)c(Nc2nc3ccccc3nc2NS(=O)(=O)c2cccc(NC(=O)C(C)(C)N)c2)c1 [XL147] (first compound 1 µM, partner dose 0.8 µM), for which the “cleaved PARP positive nuclei fraction” value turned out to be 69.9%.

`O=C(Nc1cc(C(F)(F)F)cc(C(F)(F)F)c1)c1cc(Cl)ccc1O` + COc1ccc(C2=N[C@@H](c3ccc(Cl)cc3)[C@@H](c3ccc(Cl)cc3)N2C(=O)N2CCNC(=O)C2)c(OC(C)C)c1 [Nutlin-3] (first compound 0.016 µM, partner dose 0.1 µM): the “cleaved PARP positive nuclei fraction” value is 59.2%.

For the compound `Cc1cc(Nc2cc(N3CCN(C)CC3)nc(Sc3ccc(NC(=O)C4CC4)cc3)n2)n[nH]1` [Tozasertib] + CC[C@]1(O)C[C@H]2CN(CCc3c([nH]c4ccccc34)[C@@](C(=O)OC)(c3cc4c(cc3OC)N(C=O)[C@H]3[C@@](O)(C(=O)OC)[C@H](OC(C)=O)[C@]5(CC)C=CCN6CC[C@]43[C@@H]65)C2)C1 [vincristine] (first compound 0.006 µM, partner dose 0.0001 µM), the “cleaved PARP positive nuclei fraction” value stood at 94.2%.

In the case of `CC[C@]1(O)C[C@H]2CN(CCc3c([nH]c4ccccc34)[C@@](C(=O)OC)(c3cc4c(cc3OC)N(C=O)[C@H]3[C@@](O)(C(=O)OC)[C@H](OC(C)=O)[C@]5(CC)C=CCN6CC[C@]43[C@@H]65)C2)C1` [vincristine] + COc1ccc(Cl)c(Nc2nc3ccccc3nc2NS(=O)(=O)c2cccc(NC(=O)C(C)(C)N)c2)c1 [XL147] (first compound 0.0001 µM, partner dose 0.8 µM), the “cleaved PARP positive nuclei fraction” value amounted to 152%.

As to `Cc1cn(-c2cc(NC(=O)c3ccc(C)c(Nc4nccc(-c5cccnc5)n4)c3)cc(C(F)(F)F)c2)cn1` [nilotinib] + COc1ccc(Cl)c(Nc2nc3ccccc3nc2NS(=O)(=O)c2cccc(NC(=O)C(C)(C)N)c2)c1 [XL147] (first compound 0.2 µM, partner dose 0.8 µM), the “cleaved PARP positive nuclei fraction” value came out at 133%.

For `Cc1cc(Nc2cc(N3CCN(C)CC3)nc(Sc3ccc(NC(=O)C4CC4)cc3)n2)n[nH]1` [Tozasertib] + Nc1nc(F)nc2c1ncn2[C@@H]1O[C@H](CO)[C@@H](O)[C@@H]1O [fludarabine] (first compound 0.006 µM, partner dose 0.2 µM), the “cleaved PARP positive nuclei fraction” value came out at 358%.

With `O=C(/C=C/c1cccnc1)NCCCCC1CCN(C(=O)c2ccccc2)CC1` + CCCS(=O)(=O)Nc1ccc(F)c(C(=O)c2c[nH]c3ncc(Cl)cc23)c1F [PLX4720] (first compound 0.01 µM, partner dose 0.08 µM), the “cleaved PARP positive nuclei fraction” value was found to be 63.3%.

Consider `O=C(/C=C/c1cccnc1)NCCCCC1CCN(C(=O)c2ccccc2)CC1` + CC(=O)c1c(C)c2cnc(Nc3ccc(N4CCNCC4)cn3)nc2n(C2CCCC2)c1=O [palbociclib] (first compound 0.01 µM, partner dose 0.04 µM), for which the “cleaved PARP positive nuclei fraction” value amounted to 73.3%.

Turning to `CCCCCCCCCCCCCCCCCCOP(=O)([O-])OC1CC[N+](C)(C)CC1` [Perifosine] + CCCCCCCCc1ccc(CCC(N)(CO)CO)cc1 [fingolimod] (first compound 0.4 µM, partner dose 2 µM), the “cleaved PARP positive nuclei fraction” value was found to be 22.6%.

Turning to `CC[C@]1(O)C[C@H]2CN(CCc3c([nH]c4ccccc34)[C@@](C(=O)OC)(c3cc4c(cc3OC)N(C=O)[C@H]3[C@@](O)(C(=O)OC)[C@H](OC(C)=O)[C@]5(CC)C=CCN6CC[C@]43[C@@H]65)C2)C1` [vincristine] + Nc1ncn([C@H]2C[C@H](O)[C@@H](CO)O2)c(=O)n1 [decitabine] (first compound 0.0001 µM, partner dose 0.1 µM), the “cleaved PARP positive nuclei fraction” value came out at 114%.

On to `O=c1[nH]nc(Sc2ncc([N+](=O)[O-])s2)n1-c1ccc2c(c1)OCCO2` + CC1(C)CCC(c2ccc(Cl)cc2)=C(CN2CCN(c3ccc(C(=O)NS(=O)(=O)c4ccc(N[C@H](CCN5CCOCC5)CSc5ccccc5)c(S(=O)(=O)C(F)(F)F)c4)cc3)CC2)C1 [ABT263] (first compound 0.2 µM, partner dose 0.4 µM), for which the “cleaved PARP positive nuclei fraction” value came out at 55.6%.

As for `O=c1[nH]nc(Sc2ncc([N+](=O)[O-])s2)n1-c1ccc2c(c1)OCCO2` + C=C(c1ccc(C(=O)O)cc1)c1cc2c(cc1C)C(C)(C)CCC2(C)C [Bexarotene] (first compound 0.2 µM, partner dose 2 µM), the “cleaved PARP positive nuclei fraction” value was 95.1%.

As for `CC[C@]1(O)C[C@H]2CN(CCc3c([nH]c4ccccc34)[C@@](C(=O)OC)(c3cc4c(cc3OC)N(C=O)[C@H]3[C@@](O)(C(=O)OC)[C@H](OC(C)=O)[C@]5(CC)C=CCN6CC[C@]43[C@@H]65)C2)C1` [vincristine] + COc1ccc(C2=N[C@@H](c3ccc(Cl)cc3)[C@@H](c3ccc(Cl)cc3)N2C(=O)N2CCNC(=O)C2)c(OC(C)C)c1 [Nutlin-3] (first compound 0.0001 µM, partner dose 0.1 µM), the “cleaved PARP positive nuclei fraction” value came out at 166%.

In the case of `COc1cc([C@@H]2c3cc4c(cc3[C@@H](O[C@@H]3O[C@@H]5CO[C@@H](C)O[C@H]5[C@H](O)[C@H]3O)[C@H]3COC(=O)[C@H]23)OCO4)cc(OC)c1O` [etoposide] + C[C@@H](Oc1cc(-c2cnn(C3CCNCC3)c2)cnc1N)c1c(Cl)ccc(F)c1Cl [Crizotinib] (first compound 0.02 µM, partner dose 0.2 µM), the “cleaved PARP positive nuclei fraction” value was found to be 18.8%.

On to `CC[C@]1(O)C[C@H]2CN(CCc3c([nH]c4ccccc34)[C@@](C(=O)OC)(c3cc4c(cc3OC)N(C=O)[C@H]3[C@@](O)(C(=O)OC)[C@H](OC(C)=O)[C@]5(CC)C=CCN6CC[C@]43[C@@H]65)C2)C1` [vincristine] + OCc1c[nH]c2ccccc12 [Indole-3-carbinol] (first compound 0.0001 µM, partner dose 0.8 µM), for which the “cleaved PARP positive nuclei fraction” value stood at 81.9%.
